In article PMC4775226, “Active and water-soluble form of lipidated Wnt protein is maintained by a serum glycoprotein afamin/α-albumin” (eLife, 2016) one finds binding data, which are given here for eleven molecules.

The chains behind the UniProt entries cited, without tags or fusion partners. Residues count along the entry.
UniProt P27467, residues 19-352: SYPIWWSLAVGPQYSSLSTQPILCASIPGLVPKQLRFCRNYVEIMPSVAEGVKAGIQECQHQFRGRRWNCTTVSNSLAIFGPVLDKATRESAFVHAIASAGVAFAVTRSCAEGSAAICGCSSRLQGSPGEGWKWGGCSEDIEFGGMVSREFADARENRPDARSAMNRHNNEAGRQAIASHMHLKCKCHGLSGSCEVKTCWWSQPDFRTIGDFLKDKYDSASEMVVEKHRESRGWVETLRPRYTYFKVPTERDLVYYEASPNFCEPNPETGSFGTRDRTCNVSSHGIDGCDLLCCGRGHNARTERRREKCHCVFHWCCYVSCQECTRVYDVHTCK
UniProt O00744, residues 29-389: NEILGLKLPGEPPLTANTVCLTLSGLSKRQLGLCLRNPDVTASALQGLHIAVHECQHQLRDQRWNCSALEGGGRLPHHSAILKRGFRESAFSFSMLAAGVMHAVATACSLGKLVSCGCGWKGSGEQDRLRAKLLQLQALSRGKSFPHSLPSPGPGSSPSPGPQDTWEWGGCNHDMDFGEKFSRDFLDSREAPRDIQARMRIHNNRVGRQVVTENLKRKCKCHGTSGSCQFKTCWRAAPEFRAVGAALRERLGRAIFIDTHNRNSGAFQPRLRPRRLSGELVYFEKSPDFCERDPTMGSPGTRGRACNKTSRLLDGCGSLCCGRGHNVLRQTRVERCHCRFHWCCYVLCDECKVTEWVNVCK
UniProt P56704, residues 19-352: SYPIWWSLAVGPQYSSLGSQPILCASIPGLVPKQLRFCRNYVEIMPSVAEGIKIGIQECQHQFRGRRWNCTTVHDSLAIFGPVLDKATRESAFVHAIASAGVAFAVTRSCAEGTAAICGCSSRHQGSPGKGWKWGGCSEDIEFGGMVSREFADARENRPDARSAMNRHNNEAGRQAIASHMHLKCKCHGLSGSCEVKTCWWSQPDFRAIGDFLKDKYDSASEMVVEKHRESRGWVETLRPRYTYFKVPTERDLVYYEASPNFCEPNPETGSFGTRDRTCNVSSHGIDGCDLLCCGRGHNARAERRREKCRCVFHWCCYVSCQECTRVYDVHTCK

Assay [1] has as its target T1, bovine afamin from the serum of the culture medium (bovine) (UniProt G3MYZ3).
T1 sequence: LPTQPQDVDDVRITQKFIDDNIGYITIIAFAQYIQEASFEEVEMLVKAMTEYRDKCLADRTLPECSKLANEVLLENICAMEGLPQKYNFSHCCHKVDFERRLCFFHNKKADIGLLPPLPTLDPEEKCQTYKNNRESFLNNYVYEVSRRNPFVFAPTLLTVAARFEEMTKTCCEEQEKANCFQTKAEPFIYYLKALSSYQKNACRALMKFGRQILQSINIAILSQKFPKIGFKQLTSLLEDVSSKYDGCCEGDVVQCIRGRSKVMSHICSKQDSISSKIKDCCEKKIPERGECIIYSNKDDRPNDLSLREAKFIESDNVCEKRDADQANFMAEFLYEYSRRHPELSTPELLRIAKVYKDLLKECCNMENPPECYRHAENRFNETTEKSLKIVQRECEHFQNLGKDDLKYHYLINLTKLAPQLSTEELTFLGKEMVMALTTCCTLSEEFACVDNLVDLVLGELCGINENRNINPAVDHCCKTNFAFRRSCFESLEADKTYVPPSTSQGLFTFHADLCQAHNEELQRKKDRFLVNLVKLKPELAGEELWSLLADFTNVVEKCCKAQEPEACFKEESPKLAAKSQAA
The assay is described as follows: co-IP; anti-bovine AFM monoclonal antibody B91 on Sepharose, 1 ml of serum-containing conditioned medium, 4°C for 3 h, washed three times with TBS; Oriole stain and anti-Wnt3a immunoblot.

Assay [2] has as its target T2, Tg-tagged human afamin (human) (UniProt P43652).
T2 sequence: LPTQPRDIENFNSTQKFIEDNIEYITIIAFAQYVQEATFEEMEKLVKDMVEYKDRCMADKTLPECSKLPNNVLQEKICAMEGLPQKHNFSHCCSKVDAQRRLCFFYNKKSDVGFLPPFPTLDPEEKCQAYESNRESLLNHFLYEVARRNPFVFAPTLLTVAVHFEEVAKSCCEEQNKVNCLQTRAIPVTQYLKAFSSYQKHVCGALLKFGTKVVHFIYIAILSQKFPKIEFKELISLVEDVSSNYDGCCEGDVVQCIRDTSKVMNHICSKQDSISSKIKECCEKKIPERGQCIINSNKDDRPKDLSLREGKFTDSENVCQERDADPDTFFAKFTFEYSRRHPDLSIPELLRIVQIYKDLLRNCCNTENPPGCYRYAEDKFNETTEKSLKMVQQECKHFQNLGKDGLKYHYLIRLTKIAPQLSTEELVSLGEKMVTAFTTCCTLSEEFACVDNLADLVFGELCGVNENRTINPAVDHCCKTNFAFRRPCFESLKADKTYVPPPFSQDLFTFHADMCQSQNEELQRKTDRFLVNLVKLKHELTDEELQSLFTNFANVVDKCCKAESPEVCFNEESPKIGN
The assay is described as follows: co-IP; anti-Tg antibody P20.1-Sepharose, serum-free culture media of Expi293F cells co-transfected with Tg-hAFM and PA-tagged human Wnts; immunoblot with biotinylated NZ-1. (Immunoblotting shows a protein as a band on a membrane.)

Assay [3] concerns the target TARGET-tagged mouse Wnt3a (mouse) (UniProt P27467). The experiment in a line: SEC; affinity-purified Wnt3a preparation containing AFM on Superdex 200 in the presence of 1% CHAPS; fractions on nonreducing SDS-PAGE, Coomassie stain and immunoblots; both purified. On the technique in general: Size exclusion chromatography separates by hydrodynamic size, large species first.

Assay [4] has as its target T3, TARGET-tagged mouse Wnt5a (mouse) (UniProt P22725).
T3 sequence: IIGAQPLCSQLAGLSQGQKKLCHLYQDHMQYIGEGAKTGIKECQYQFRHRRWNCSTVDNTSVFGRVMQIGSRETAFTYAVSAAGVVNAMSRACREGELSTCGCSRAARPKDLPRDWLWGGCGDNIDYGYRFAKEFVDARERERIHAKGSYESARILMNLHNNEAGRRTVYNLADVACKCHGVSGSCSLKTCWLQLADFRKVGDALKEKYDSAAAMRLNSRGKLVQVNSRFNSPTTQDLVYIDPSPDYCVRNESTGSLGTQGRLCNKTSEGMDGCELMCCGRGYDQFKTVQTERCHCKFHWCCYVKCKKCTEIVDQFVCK
The assay is described as follows: co-IP; anti-TARGET tag antibody P20.1-Sepharose incubated with serum-containing conditioned medium at 4°C for 3 hr, washed with TBS (20 mM Tris, 150 mM NaCl, pH 7.5), eluted with 0.2 mg/ml C8 peptide; SDS-PAGE, Coomassie or Oriole stain, N-terminal Edman sequencing of the bands.

The target in assay [5] is T3, TARGET-tagged mouse Wnt5a (mouse). The assay is described as follows: SEC; immunoaffinity-purified Wnt preparation on Superdex 200 10/300GL in TBS, no detergent; fractions on nonreducing SDS-PAGE, Coomassie stain and immunoblots; both purified.

These are yes or no findings as the source states them, for the method shown. For some of these results: In cells and extracts the contact can be indirect. Some entries that bind do so weakly or less than the wild type. For some of these results: Sequences can lack the tags named with a protein.

For the molecule “untagged mouse Wnt3a secreted from L-3a cells (from UniProt P27467 19-352)”, the binding result in assay [1] is “binds”. For “PA-tagged human Wnt10b (from UniProt O00744 29-389)”, in assay [2], the binding entry is “binds”. The same measure, in the same setting: with “PA-tagged human Wnt3a (from UniProt P56704 19-352)” the entry was “binds”.

B1: PA-tagged human Wnt7b (protein, UniProt P56706 25-349)
chain: ALSSVVALGANIICNKIPGLAPRQRAICQSRPDAIIVIGEGAQMGINECQYQFRFGRWNCSALGEKTVFGQELRVGSREAAFTYAITAAGVAHAVTAACSQGNLSNCGCDREKQGYYNQAEGWKWGGCSADVRYGIDFSRRFVDAREIKKNARRLMNLHNNEAGRKVLEDRMQLECKCHGVSGSCTTKTCWTTLPKFREVGHLLKEKYNAAVQVEVVRASRLRQPTFLRIKQLRSYQKPMETDLVYIEKSPNYCEEDAATGSVGTQGRLCNRTSPGADGCDTMCCGRGYNTHQYTKVWQCNCKFHWCCFVKCNTCSERTEVFTCK
B1: the binding entry in assay [2] is listed as “binds”.

B2: PA-tagged human Wnt5a (protein, UniProt P41221 62-380)
chain: IIGAQPLCSQLAGLSQGQKKLCHLYQDHMQYIGEGAKTGIKECQYQFRHRRWNCSTVDNTSVFGRVMQIGSRETAFTYAVSAAGVVNAMSRACREGELSTCGCSRAARPKDLPRDWLWGGCGDNIDYGYRFAKEFVDARERERIHAKGSYESARILMNLHNNEAGRRTVYNLADVACKCHGVSGSCSLKTCWLQLADFRKVGDALKEKYDSAAAMRLNSRGKLVQVNSRFNSPTTQDLVYIDPSPDYCVRNESTGSLGTQGRLCNKTSEGMDGCELMCCGRGYDQFKTVQTERCHCKFHWCCYVKCKKCTEIVDQFVCK
In the case of B2, the binding result in assay [2] was “binds”.

B3: PA-tagged human Wnt7a (protein, UniProt O00755 32-349)
chain: LGASIICNKIPGLAPRQRAICQSRPDAIIVIGEGSQMGLDECQFQFRNGRWNCSALGERTVFGKELKVGSREAAFTYAIIAAGVAHAITAACTQGNLSDCGCDKEKQGQYHRDEGWKWGGCSADIRYGIGFAKVFVDAREIKQNARTLMNLHNNEAGRKILEENMKLECKCHGVSGSCTTKTCWTTLPQFRELGYVLKDKYNEAVHVEPVRASRNKRPTFLKIKKPLSYRKPMDTDLVYIEKSPNYCEEDPVTGSVGTQGRACNKTAPQASGCDLMCCGRGYNTHQYARVWQCNCKFHWCCYVKCNTCSERTEMYTCK
As to B3, in assay [2], the binding result is given as “binds”.

B4: bovine afamin from the serum of the culture medium (natural protein, UniProt G3MYZ3 22-604, looked up)
chain: LPTQPQDVDDVRITQKFIDDNIGYITIIAFAQYIQEASFEEVEMLVKAMTEYRDKCLADRTLPECSKLANEVLLENICAMEGLPQKYNFSHCCHKVDFERRLCFFHNKKADIGLLPPLPTLDPEEKCQTYKNNRESFLNNYVYEVSRRNPFVFAPTLLTVAARFEEMTKTCCEEQEKANCFQTKAEPFIYYLKALSSYQKNACRALMKFGRQILQSINIAILSQKFPKIGFKQLTSLLEDVSSKYDGCCEGDVVQCIRGRSKVMSHICSKQDSISSKIKDCCEKKIPERGECIIYSNKDDRPNDLSLREAKFIESDNVCEKRDADQANFMAEFLYEYSRRHPELSTPELLRIAKVYKDLLKECCNMENPPECYRHAENRFNETTEKSLKIVQRECEHFQNLGKDDLKYHYLINLTKLAPQLSTEELTFLGKEMVMALTTCCTLSEEFACVDNLVDLVLGELCGINENRNINPAVDHCCKTNFAFRRSCFESLEADKTYVPPSTSQGLFTFHADLCQAHNEELQRKKDRFLVNLVKLKPELAGEELWSLLADFTNVVEKCCKAQEPEACFKEESPKLAAKSQAA
notes: bovine afamin, serum-derived; Glycoprotein of about 70 kDa; also called AFM; α-albumin; source: endogenous, fetal calf serum in the culture medium
Turning to B4, the binding entry is “no binding (condition: with 1% CHAPS)” in assay [3], “binds” in assay [4] and “binds” in assay [5].

B5: PA-tagged human Wnt9b (protein, UniProt O14905 23-357)
chain: SYFGLTGREVLTPFPGLGTAAAPAQGGAHLKQCDLLKLSRRQKQLCRREPGLAETLRDAAHLGLLECQFQFRHERWNCSLEGRMGLLKRGFKETAFLYAVSSAALTHTLARACSAGRMERCTCDDSPGLESRQAWQWGVCGDNLKYSTKFLSNFLGSKRGNKDLRARADAHNTHVGIKAVKSGLRTTCKCHGVSGSCAVRTCWKQLSPFRETGQVLKLRYDSAVKVSSATNEALGRLELWAPARQGSLTKGLAPRSGDLVYMEDSPSFCRPSKYSPGTAGRVCSREASCSSLCCGRGYDTQSRLVAFSCHCQVQWCCYVECQQCVQEELVYTCKH
As to B5, the binding result in assay [2] is reported as “binds”.

B6: PA-tagged human Wnt1 (protein, UniProt P04628 28-370)
chain: ANSSGRWWGIVNVASSTNLLTDSKSLQLVLEPSLQLLSRKQRRLIRQNPGILHSVSGGLQSAVRECKWQFRNRRWNCPTAPGPHLFGKIVNRGCRETAFIFAITSAGVTHSVARSCSEGSIESCTCDYRRRGPGGPDWHWGGCSDNIDFGRLFGREFVDSGEKGRDLRFLMNLHNNEAGRTTVFSEMRQECKCHGMSGSCTVRTCWMRLPTLRAVGDVLRDRFDGASRVLYGNRGSNRASRAELLRLEPEDPAHKPPSPHDLVYFEKSPNFCTYSGRLGTAGTAGRACNSSSPALDGCELLCCGRGHRTRTQRVTERCNCTFHWCCHVSCRNCTHTRVLHECL
Turning to B6, in assay [2], the binding entry is on record as “binds”.

B7: PA-tagged human Wnt8a (protein, UniProt Q9H1J5 25-351)
chain: VNNFLITGPKAYLTYTTSVALGAQSGIEECKFQFAWERWNCPENALQLSTHNRLRSATRETSFIHAISSAGVMYIITKNCSMGDFENCGCDGSNNGKTGGHGWIWGGCSDNVEFGERISKLFVDSLEKGKDARALMNLHNNRAGRLAVRATMKRTCKCHGISGSCSIQTCWLQLAEFREMGDYLKAKYDQALKIEMDKRQLRAGNSAEGHWVPAEAFLPSAEAELIFLEESPDYCTCNSSLGIYGTEGRECLQNSHNTSRWERRSCGRLCTECGLQVEERKTEVISSCNCKFQWCCTVKCDQCRHVVSKYYCARSPGSAQSLGKGSA
Take B7: the binding entry in assay [2] is recorded as “binds”.

B8: PA-tagged human Wnt9a (protein, UniProt O14904 30-365)
chain: YFGLTGSEPLTILPLTLEPEAAAQAHYKACDRLKLERKQRRMCRRDPGVAETLVEAVSMSALECQFQFRFERWNCTLEGRYRASLLKRGFKETAFLYAISSAGLTHALAKACSAGRMERCTCDEAPDLENREAWQWGGCGDNLKYSSKFVKEFLGRRSSKDLRARVDFHNNLVGVKVIKAGVETTCKCHGVSGSCTVRTCWRQLAPFHEVGKHLKHKYETALKVGSTTNEAAGEAGAISPPRGRASGAGGSDPLPRTPELVHLDDSPSFCLAGRFSPGTAGRRCHREKNCESICCGRGHNTQSRVVTRPCQCQVRWCCYVECRQCTQREEVYTCKG
Turning to B8, the binding entry in assay [2] is recorded as “binds”.
